Measurements reported in PubChem BioAssay AID1053208 (Peter MacCallum Cancer Centre, 2014).
Here is a random part of about 17,000 deposited reagents. Of all reagents, 788 (4.7%) were called active. 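Calls rest on z-score classes alone; an extra cut-off of viability at most 70% of control was not applied to them.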

Assay: 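Synthetic lethal interactions between gene loss and doxorubicin in osteosarcoma cells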 (primary screen)
Cell system: mouse osteosarcoma cells, early-passage culture from an engineered mouse model of fibroblastic bone tumour
Reagent: siRNA pool against mouse genes, 40 nM
Duration: about 120 h (48 h before drug, then 72 h with drug)
Conditions: doxorubicin 100 nM for 72 h, roughly 30-40% inhibitory dose
Measured: 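Luminescent ATP signal taken as viability with or without 100 nM doxorubicin for 72 h; mean of two wells set against non-targeting siRNA and turned into robust z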
Scale: viability z-score with doxorubicin and doxorubicin viability vs non-targeting: higher = more viable cells under doxorubicin; viability z-score without drug: higher = more viable cells with knock-down alone; z-score of drug to no-drug ratio: higher = less drug sensitisation by knock-down
Rule for the call: 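a pool counts as active when its viability z-score with doxorubicin is -2 or below and its z-score without drug lies between -2 and 2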

gene symbol | combined z-score class | viability z-score with doxorubicin | viability z-score without drug | z-score of drug to no-drug ratio | doxorubicin viability vs non-targeting | Call
1700129L13RIK | no change with or without drug | -0.9 | 1.69 | -1.8 | 0.86 | inactive
Eppk1 (GeneID 223650) | no change with or without drug | 0.22 | 0.17 | 0.22 | 0.96 | inactive
Dennd5a (GeneID 19347) | no change with or without drug | 0.45 | 1.18 | -0.22 | 0.98 | inactive
Or10ab5 (GeneID 258369) | no change with or without drug | 0.9 | 0.51 | 0.67 | 1.02 | inactive
Klre1 (GeneID 243655) | no change with or without drug | -1.57 | -1.52 | -0.56 | 0.8 | inactive
Purg (GeneID 75029) | no change with or without drug | -1.69 | 1.52 | -2.47 | 0.79 | inactive
Ndufa1 (GeneID 54405) | low cell count with and without drug | -2.25 | -3.54 | 0.22 | 0.74 | inactive
Sprr3 (GeneID 20766) | no change with or without drug | 0.67 | 0.17 | 0.67 | 1 | inactive
Vmn1r40 (GeneID 113855) | no change with or without drug | 0.45 | 0.51 | 0.22 | 0.98 | inactive
Lrtm2 (GeneID 211187) | high cell count without drug only | -0.11 | 2.53 | -1.46 | 0.93 | inactive
Rfx5 (GeneID 53970) | no change with or without drug | -0.22 | -0.51 | 0.22 | 0.92 | inactive
Iqcb1 (GeneID 320299) | no change with or without drug | -0.9 | -0.17 | -0.79 | 0.86 | inactive
E130006D01Rik (GeneID 269683) | no change with or without drug | 1.35 | 1.52 | 0.45 | 1.06 | inactive
Col4a2 (GeneID 12827) | no change with or without drug | 0.22 | -1.18 | 1.24 | 0.96 | inactive
Or5aq7 (GeneID 258766) | no change with or without drug | 0.67 | 0.51 | 0.45 | 1 | inactive
Csf2rb2 (GeneID 12984) | no change with or without drug | 0.34 | 1.18 | -0.34 | 0.97 | inactive
Avp (GeneID 11998) | no change with or without drug | 0 | -0.17 | 0.22 | 0.94 | inactive
Depdc1b (GeneID 218581) | no change with or without drug | -1.24 | -0.51 | -0.9 | 0.83 | inactive
Cdr2 (GeneID 12585) | no change with or without drug | -0.11 | 1.35 | -0.9 | 0.93 | inactive
Rnf214 (GeneID 235315) | no change with or without drug | 0.45 | 0.67 | 0.11 | 0.98 | inactive
Arhgap28 (GeneID 268970) | no change with or without drug | 0 | 0.51 | -0.22 | 0.94 | inactive
Rhebl1 (GeneID 69159) | no change with or without drug | 1.12 | 0.84 | 0.67 | 1.04 | inactive
Itga4 (GeneID 16401) | no change with or without drug | -0.45 | -1.01 | 0.34 | 0.9 | inactive
Socs7 (GeneID 192157) | no change with or without drug | 0.11 | 0.17 | 0.11 | 0.95 | inactive
Gadd45gip1 (GeneID 102060) | no change with or without drug | 1.12 | -0.17 | 1.46 | 1.04 | inactive
Serpina3k (GeneID 20714) | no change with or without drug | 0.67 | 0.67 | 0.34 | 1 | inactive
Or5d16 (GeneID 258636) | low cell count with doxorubicin only | -2.02 | -1.35 | -1.24 | 0.76 | active
Vav2 (GeneID 22325) | no change with or without drug | 0.22 | 0.17 | 0.22 | 0.96 | inactive
Snapc4 (GeneID 227644) | no change with or without drug | -1.24 | -1.18 | -0.45 | 0.83 | inactive
Ndufs4 (GeneID 17993) | no change with or without drug | -0.79 | -0.17 | -0.56 | 0.87 | inactive
Tmprss11e (GeneID 243084) | no change with or without drug | -0.22 | 0.17 | -0.22 | 0.92 | inactive
Cdkl3 (GeneID 213084) | low cell count with doxorubicin only | -2.47 | -1.52 | -1.57 | 0.72 | active
Cbx8 (GeneID 30951) | no change with or without drug | -0.11 | 0.17 | -0.11 | 0.93 | inactive
Tmem71 (GeneID 213068) | no change with or without drug | -0.45 | 0.84 | -0.9 | 0.9 | inactive
Xrcc2 (GeneID 57434) | no change with or without drug | -0.9 | -0.51 | -0.56 | 0.86 | inactive
Or8c11 (GeneID 404313) | no change with or without drug | 0.45 | 0.67 | 0.11 | 0.98 | inactive
Srsf19 (GeneID 245492) | low cell count with doxorubicin only | -2.02 | -0.51 | -1.69 | 0.76 | active
Itgbl1 (GeneID 223272) | no change with or without drug | -0.22 | 1.52 | -1.12 | 0.92 | inactive
Rdh9 (GeneID 103142) | no change with or without drug | 0.56 | -0.84 | 1.35 | 0.99 | inactive
Or2ag13 (GeneID 258591) | no change with or without drug | -0.22 | -0.17 | 0 | 0.92 | inactive
Gsta3 (GeneID 14859) | no change with or without drug | -1.57 | -0.51 | -1.24 | 0.8 | inactive
Siah2 (GeneID 20439) | no change with or without drug | -1.12 | -1.18 | -0.34 | 0.84 | inactive
Gdap10 (GeneID 100504486) | no change with or without drug | 0.79 | 1.69 | -0.22 | 1.01 | inactive
Barx2 (GeneID 12023) | no change with or without drug | -0.67 | 0.67 | -1.01 | 0.88 | inactive
Ccdc166 (GeneID 223648) | no change with or without drug | 0.67 | 0.51 | 0.45 | 1 | inactive
Zcchc10 (GeneID 67966) | no change with or without drug | -0.9 | -0.17 | -0.79 | 0.86 | inactive
Nupr2 (GeneID 69034) | no change with or without drug | 0 | 0.51 | -0.22 | 0.94 | inactive
Rbm10 (GeneID 236732) | high cell count without drug only | 1.8 | 2.7 | 0.11 | 1.1 | inactive
Fam171b (GeneID 241520) | high cell count without drug only | -0.11 | 3.2 | -1.8 | 0.93 | inactive
Rrp36 (GeneID 224823) | low cell count without drug only | -1.57 | -2.19 | 0 | 0.8 | inactive
